Data source: PubChem BioAssay AID652243 (Drosophila RNAi Screening Center, 2013)
The deposit covers about 24,000 reagents; below is a random part of those with a known target gene and a result. Over the whole deposit, 246 (1%) got an active call. 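Plates not normalised; calls are printed but the firefly/Renilla ratio behind them is not deposited; fold cut for lowering reported inconsistently.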 Raw values are not corrected between plates. Reagents against one gene are numbered here. A plus sign joins genes that one reagent is predicted to hit. Not given: the amount of reagent.

Screen: 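Knock-downs that decrease or increase androgen receptor reporter signal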 (primary screen)
System: Drosophila S2R+ cells
Reagents: long dsRNA against Drosophila genes
Timing: 72 h (48 h, then 24 h hormone)
Conditions: synthetic androgen R1881 at 10 nM for 24 h
Measurement: 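Firefly light from an androgen-responsive reporter and Renilla control light per well, raw and unnormalised, for each of two replicates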
Direction: firefly reporter light: higher = more light from androgen-responsive reporter; Renilla control light: higher = more constitutive control signal (cell number, transfection)
Active means: 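Hit when the log firefly-to-Renilla ratio dropped or increased by a fixed fold versus the mean of GFP or LacZ controls across duplicate plates; lowering cut given as 1.5 and as 3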
Calls: active = hit: reporter lowered or raised; inactive = no hit

Target gene,reagent,"firefly reporter light, replicate 1","firefly reporter light, replicate 2","Renilla control light, replicate 1","Renilla control light, replicate 2",call
CG10916,1,2.53e5,3.20e5,3.65e5,3.99e5,inactive
Srx,1,5.78e5,4.66e5,3.67e6,3.20e6,inactive
CycK,1,6.00e5,5.80e5,1.74e6,2.11e6,inactive
CycK,2,,,,,inactive
CG9692,1,2.34e5,1.90e5,1.86e6,1.08e6,inactive
Trm1,1,9.71e5,9.61e5,2.27e6,2.60e6,inactive
CG7457,1,1.06e5,1.05e5,1.37e6,1.33e6,inactive
CG7457,2,6.46e5,5.84e5,6.02e5,4.45e5,inactive
CG4744,1,1.20e6,9.66e5,2.52e6,2.41e6,inactive
CG4744,2,6.08e5,4.36e5,1.23e6,1.17e6,inactive
emei,1,4.91e5,3.38e5,2.87e6,2.94e6,inactive
emei,2,5.18e5,3.86e5,1.38e6,9.21e5,inactive
fs(2)ltoPP43,1,68360,60146,8.22e5,5.61e5,inactive
fs(2)ltoPP43,2,4.59e5,3.36e5,5.61e5,3.68e5,inactive
Crtp,1,3.48e5,4.09e5,2.41e6,2.22e6,inactive
Crtp,2,3.59e5,3.00e5,6.68e5,3.74e5,inactive
CG15820,1,7.75e5,7.58e5,1.76e6,1.26e6,inactive
CG15820,2,1.04e6,6.02e5,3.47e6,1.32e6,inactive
CG4853,1,3.98e5,1.19e5,6.18e5,4.88e5,inactive
CG4853,2,3.91e5,6.29e5,6.17e5,1.01e6,inactive
CG8026,1,5.01e5,6.27e5,1.80e6,1.82e6,inactive
CG8026,2,3.24e5,3.14e5,1.89e6,1.84e6,inactive
NELF-B,1,58030,66417,4.18e5,3.31e5,inactive
NELF-B,2,3.01e5,3.63e5,6.67e5,7.09e5,inactive
ssx,1,27982,32094,2.07e5,3.22e5,inactive
ssx,2,1.22e6,1.46e6,7.96e5,9.58e5,inactive
ssx,3,8.31e5,6.59e5,1.95e6,1.90e6,inactive
CG32170,1,85668,77843,3.60e5,3.70e5,inactive
CG42516 + Pbp49,1,1.12e6,1.35e6,9.10e5,1.20e6,inactive
Fen1,1,67940,86787,1.30e6,1.30e6,inactive
Ulp1,1,1.48e5,1.07e5,1.03e6,8.81e5,inactive
Tsp29Fb,1,1.97e5,1.14e5,1.67e6,1.45e6,inactive
Tsp29Fb,2,2.86e5,2.57e5,5.07e5,4.87e5,inactive
CG7071 + Muted,1,2.68e5,3.27e5,3.42e6,2.92e6,inactive
CG4661,1,4.73e5,4.26e5,4.55e6,3.23e6,inactive
Cht11,1,1.94e5,2.76e5,2.44e6,2.63e6,inactive
Cht11,2,4.22e5,6.28e5,8.22e5,7.72e5,inactive
Trim9,1,2.60e5,2.44e5,1.71e6,1.50e6,inactive
Trim9,2,6.05e5,4.11e5,1.64e6,1.58e6,inactive
CG2225,1,7.97e5,7.77e5,1.69e6,2.09e6,inactive
CG2225,2,2.95e5,3.95e5,1.86e6,2.00e6,inactive

Quoted from the listing, 4 entries:
Target gene,reagent,"firefly reporter light, replicate 1","firefly reporter light, replicate 2","Renilla control light, replicate 1","Renilla control light, replicate 2",call
Fen1,1,67940,86787,1.30e6,1.30e6,inactive
Ulp1,1,1.48e5,1.07e5,1.03e6,8.81e5,inactive
Tsp29Fb,1,1.97e5,1.14e5,1.67e6,1.45e6,inactive
Tsp29Fb,2,2.86e5,2.57e5,5.07e5,4.87e5,inactive
